Results are given in words; binding and its absence hold for the method and conditions named. In cells and extracts the contact can be indirect. Binding calls can cover weak binding; strength is not graded here. Tags and fused reporters may be left off the sequences shown.
Assays:
Experiment in all cases: co-IP; HEK293 cells transfected with full length HA-FN or HA-FN-truncated constructs D1-5 along with Flag-TAK1, Flag-TAB1, Myc-TAB2 or Myc-TAB3; 48 h post-transfection
[1] = molecular target: T1, TAK1-binding protein 1 (TAB1), Flag-tagged (UniProt Q15750)
T1 sequence: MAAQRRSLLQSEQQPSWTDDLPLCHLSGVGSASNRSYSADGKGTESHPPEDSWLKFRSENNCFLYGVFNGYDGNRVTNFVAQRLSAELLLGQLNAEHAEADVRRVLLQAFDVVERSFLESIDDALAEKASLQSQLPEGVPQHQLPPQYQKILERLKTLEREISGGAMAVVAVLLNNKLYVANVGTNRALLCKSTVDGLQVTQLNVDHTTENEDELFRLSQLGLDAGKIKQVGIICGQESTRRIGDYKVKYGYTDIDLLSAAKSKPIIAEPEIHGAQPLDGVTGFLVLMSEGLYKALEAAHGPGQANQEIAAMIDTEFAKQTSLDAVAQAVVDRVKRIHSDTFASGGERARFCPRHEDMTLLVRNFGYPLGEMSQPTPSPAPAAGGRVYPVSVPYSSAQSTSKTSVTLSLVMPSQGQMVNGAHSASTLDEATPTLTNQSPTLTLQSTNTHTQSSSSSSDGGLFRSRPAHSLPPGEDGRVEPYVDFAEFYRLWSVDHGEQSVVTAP

[2] = molecular target: T2, TAK1-binding protein 3 (TAB3), Myc-tagged (UniProt Q8N5C8)
T2 sequence: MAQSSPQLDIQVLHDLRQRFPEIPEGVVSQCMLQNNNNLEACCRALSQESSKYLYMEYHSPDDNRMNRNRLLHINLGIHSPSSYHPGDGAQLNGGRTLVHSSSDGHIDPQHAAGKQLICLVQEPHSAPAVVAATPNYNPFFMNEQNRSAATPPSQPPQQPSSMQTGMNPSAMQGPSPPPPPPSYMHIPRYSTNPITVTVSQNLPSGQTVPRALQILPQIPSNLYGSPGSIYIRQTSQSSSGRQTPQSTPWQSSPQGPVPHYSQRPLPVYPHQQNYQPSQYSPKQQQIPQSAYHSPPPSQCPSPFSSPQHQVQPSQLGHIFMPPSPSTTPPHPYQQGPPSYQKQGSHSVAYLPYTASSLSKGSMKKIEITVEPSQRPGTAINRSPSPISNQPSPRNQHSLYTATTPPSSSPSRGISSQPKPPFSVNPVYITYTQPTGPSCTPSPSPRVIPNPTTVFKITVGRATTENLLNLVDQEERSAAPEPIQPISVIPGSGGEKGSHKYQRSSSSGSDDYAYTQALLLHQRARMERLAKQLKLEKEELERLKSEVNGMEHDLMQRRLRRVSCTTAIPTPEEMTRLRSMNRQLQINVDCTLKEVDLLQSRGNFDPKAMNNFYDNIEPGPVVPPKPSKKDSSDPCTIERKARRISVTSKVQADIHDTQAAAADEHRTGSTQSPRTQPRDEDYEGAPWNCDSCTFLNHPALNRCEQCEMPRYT

[3] = molecular target: T3, TAK1-binding protein 2 (TAB2), Myc-tagged (UniProt Q9NYJ8)
T3 sequence: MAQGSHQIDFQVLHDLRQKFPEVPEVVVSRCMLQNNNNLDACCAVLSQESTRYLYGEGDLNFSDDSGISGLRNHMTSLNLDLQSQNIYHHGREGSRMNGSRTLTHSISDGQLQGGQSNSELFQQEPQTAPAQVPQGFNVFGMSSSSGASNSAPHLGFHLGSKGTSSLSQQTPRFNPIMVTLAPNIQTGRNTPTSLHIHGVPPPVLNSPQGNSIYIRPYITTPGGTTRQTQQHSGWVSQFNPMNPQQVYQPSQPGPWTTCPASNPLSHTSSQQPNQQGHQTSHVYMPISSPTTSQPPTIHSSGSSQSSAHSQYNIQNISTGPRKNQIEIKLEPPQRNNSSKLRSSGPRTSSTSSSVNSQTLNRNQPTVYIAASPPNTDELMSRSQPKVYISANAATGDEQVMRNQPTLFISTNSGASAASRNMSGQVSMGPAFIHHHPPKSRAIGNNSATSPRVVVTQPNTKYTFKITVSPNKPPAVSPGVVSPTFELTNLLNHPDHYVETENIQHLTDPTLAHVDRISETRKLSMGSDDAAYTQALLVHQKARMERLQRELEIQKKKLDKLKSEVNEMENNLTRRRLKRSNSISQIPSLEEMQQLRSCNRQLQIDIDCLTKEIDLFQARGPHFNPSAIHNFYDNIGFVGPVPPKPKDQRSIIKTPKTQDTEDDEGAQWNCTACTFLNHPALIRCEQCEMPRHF

[4] = molecular target: T4, Transforming growth factor β-activated protein kinase 1 (TAK1), Flag-tagged (UniProt O43318)
T4 sequence: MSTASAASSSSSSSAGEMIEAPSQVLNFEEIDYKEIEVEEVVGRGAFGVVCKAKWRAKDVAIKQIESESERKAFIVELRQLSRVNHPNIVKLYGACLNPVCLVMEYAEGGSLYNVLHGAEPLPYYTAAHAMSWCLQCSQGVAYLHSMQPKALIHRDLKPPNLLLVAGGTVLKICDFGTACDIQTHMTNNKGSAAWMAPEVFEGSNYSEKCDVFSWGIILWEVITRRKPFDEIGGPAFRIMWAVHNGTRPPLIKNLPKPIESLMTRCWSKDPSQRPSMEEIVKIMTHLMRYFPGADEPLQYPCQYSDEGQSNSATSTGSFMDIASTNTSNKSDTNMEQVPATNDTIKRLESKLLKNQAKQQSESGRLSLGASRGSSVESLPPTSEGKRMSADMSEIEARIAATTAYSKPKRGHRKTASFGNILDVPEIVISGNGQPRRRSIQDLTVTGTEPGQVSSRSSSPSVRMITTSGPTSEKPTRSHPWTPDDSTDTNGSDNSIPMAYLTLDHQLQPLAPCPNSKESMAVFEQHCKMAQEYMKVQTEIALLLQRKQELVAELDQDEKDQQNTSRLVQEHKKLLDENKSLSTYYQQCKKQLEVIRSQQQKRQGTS

Measured: binding

HA-FN truncated segment D5 (C-terminal domain) (domain or fragment)
binds: [1] | [2] | [3] | [4]

Full length HA-FN (fibronectin in PKH3-3XHA)
binds: [1] | [2] | [3] | [4]
